Laboratory results: article doi:10.1101/2025.10.03.680331

By UniProt entry, the sequences of proteins in these tests, tags left out.
UniProt Q64331: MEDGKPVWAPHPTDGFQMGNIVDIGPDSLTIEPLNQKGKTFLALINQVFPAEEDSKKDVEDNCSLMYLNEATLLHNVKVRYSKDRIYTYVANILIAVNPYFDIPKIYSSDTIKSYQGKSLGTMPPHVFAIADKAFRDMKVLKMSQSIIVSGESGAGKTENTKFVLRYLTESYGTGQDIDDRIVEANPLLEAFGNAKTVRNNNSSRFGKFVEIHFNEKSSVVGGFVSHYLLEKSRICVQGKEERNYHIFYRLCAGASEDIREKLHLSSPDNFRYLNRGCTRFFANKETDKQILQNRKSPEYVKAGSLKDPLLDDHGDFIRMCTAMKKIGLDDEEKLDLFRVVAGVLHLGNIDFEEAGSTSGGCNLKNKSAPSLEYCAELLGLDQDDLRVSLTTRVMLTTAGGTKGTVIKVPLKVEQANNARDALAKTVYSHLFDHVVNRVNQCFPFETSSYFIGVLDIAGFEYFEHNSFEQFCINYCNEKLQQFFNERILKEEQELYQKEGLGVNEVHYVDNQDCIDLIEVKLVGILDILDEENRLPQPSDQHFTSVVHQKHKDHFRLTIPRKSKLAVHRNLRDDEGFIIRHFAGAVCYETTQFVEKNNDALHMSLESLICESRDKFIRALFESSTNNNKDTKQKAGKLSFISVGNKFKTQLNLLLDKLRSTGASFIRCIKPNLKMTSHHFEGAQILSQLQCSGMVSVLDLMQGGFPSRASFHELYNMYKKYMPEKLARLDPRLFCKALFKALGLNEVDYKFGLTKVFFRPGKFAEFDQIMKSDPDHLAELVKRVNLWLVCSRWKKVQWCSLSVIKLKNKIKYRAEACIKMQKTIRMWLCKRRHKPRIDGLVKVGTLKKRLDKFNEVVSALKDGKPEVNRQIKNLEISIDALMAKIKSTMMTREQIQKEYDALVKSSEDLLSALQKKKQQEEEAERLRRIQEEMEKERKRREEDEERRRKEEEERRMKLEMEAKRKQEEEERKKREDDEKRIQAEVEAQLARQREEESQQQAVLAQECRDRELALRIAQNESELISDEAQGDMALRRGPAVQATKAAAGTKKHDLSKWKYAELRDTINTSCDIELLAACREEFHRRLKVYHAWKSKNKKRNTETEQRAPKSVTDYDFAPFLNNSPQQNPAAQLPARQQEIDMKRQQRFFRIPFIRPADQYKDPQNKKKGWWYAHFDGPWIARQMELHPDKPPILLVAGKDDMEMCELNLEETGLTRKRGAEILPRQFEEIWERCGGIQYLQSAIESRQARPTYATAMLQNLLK
UniProt Q8CFI0: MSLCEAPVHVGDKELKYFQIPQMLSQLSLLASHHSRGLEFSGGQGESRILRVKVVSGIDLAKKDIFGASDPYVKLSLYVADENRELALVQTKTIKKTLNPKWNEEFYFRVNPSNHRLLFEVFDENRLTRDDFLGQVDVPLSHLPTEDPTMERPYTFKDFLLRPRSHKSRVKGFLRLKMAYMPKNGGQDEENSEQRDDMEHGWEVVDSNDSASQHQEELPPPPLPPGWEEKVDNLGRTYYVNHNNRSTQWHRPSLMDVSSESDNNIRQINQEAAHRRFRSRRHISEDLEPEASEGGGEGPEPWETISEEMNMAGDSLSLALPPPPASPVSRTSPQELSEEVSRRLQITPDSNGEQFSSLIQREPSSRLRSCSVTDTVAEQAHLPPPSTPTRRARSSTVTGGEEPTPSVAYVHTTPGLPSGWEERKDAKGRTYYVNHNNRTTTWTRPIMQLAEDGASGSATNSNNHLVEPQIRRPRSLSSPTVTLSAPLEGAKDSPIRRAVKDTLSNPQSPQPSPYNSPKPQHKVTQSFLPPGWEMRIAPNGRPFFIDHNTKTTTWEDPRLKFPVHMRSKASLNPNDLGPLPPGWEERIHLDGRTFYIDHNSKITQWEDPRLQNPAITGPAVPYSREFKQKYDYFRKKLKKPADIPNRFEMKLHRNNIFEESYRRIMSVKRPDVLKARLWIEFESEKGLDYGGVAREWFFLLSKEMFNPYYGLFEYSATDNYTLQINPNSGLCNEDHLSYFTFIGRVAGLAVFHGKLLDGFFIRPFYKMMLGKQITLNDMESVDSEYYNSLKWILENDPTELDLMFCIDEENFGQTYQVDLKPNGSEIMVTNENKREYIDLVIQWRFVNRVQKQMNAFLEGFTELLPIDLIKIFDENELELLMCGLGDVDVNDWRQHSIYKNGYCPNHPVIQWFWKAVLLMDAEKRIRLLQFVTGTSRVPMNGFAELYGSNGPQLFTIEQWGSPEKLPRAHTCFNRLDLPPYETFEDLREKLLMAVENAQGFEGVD
UniProt Q8BK67: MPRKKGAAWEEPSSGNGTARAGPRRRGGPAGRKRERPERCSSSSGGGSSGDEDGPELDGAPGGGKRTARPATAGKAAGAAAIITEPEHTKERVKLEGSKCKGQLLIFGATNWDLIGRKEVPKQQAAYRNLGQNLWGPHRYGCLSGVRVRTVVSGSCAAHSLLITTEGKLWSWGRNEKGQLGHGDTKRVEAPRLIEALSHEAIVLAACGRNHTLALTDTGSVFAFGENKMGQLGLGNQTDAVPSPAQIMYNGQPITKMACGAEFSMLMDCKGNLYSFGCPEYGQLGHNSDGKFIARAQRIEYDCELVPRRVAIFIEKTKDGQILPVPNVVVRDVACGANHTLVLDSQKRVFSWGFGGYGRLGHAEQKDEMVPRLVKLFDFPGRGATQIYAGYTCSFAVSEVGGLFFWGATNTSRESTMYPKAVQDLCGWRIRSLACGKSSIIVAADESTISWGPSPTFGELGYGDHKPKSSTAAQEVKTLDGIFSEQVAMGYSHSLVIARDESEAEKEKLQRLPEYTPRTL
UniProt Q9DBH0: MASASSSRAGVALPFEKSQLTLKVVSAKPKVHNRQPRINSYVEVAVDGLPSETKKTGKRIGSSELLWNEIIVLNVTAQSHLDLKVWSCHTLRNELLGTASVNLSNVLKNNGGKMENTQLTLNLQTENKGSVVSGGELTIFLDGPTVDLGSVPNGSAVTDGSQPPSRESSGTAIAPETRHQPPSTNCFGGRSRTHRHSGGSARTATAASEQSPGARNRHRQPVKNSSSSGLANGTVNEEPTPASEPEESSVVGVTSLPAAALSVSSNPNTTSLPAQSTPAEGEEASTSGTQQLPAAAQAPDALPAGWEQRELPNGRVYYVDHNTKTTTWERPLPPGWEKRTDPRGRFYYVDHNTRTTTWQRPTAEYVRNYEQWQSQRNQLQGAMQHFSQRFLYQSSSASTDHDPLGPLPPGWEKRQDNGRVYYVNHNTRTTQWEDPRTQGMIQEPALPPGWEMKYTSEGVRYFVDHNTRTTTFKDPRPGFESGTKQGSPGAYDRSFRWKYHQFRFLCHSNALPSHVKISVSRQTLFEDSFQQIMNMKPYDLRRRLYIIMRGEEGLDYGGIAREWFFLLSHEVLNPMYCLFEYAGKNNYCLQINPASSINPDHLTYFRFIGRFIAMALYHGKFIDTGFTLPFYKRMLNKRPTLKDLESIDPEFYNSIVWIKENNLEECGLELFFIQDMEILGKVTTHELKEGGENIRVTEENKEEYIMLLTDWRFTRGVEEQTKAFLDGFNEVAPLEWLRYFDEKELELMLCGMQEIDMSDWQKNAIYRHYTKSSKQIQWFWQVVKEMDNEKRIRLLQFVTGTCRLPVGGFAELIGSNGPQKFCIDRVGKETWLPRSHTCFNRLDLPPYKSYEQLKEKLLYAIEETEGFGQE
UniProt Q61937: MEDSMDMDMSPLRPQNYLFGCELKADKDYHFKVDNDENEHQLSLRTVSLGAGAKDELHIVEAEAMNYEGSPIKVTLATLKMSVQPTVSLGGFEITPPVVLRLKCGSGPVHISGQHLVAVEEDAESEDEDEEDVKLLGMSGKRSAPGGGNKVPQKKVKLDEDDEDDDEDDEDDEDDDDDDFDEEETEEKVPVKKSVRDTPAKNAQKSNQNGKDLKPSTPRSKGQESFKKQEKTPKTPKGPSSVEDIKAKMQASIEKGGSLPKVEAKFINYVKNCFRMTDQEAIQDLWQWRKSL
UniProt O08788: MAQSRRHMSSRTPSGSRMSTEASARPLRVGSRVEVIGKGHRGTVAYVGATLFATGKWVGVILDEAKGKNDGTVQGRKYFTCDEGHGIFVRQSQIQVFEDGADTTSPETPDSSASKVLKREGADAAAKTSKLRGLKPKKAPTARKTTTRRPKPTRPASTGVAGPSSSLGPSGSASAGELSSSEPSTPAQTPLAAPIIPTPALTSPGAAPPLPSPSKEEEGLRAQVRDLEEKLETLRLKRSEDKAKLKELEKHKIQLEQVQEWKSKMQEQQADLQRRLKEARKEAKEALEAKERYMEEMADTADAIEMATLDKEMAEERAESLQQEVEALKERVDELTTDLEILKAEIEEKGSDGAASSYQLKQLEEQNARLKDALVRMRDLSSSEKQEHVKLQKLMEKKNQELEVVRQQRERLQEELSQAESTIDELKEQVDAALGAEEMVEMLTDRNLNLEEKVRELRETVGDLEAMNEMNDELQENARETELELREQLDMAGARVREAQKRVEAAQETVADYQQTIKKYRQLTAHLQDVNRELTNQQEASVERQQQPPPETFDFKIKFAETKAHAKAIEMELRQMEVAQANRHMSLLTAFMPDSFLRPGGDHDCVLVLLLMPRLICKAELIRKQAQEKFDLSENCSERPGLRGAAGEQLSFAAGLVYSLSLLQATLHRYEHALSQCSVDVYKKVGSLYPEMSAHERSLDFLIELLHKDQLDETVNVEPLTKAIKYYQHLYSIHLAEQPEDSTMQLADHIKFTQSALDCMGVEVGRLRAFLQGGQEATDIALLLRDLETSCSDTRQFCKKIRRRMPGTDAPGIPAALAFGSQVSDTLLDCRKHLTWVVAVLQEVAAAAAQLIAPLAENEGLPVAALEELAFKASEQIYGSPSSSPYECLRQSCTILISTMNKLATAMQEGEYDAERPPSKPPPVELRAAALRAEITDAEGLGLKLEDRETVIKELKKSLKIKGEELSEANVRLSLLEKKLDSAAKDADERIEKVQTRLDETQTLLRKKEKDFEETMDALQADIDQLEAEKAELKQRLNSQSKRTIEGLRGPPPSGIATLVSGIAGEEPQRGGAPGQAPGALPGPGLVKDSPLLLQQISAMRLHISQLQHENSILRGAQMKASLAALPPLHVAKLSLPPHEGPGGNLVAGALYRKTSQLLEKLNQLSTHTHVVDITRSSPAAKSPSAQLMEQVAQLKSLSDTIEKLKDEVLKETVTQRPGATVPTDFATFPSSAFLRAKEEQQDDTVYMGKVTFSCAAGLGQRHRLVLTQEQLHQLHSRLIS
UniProt Q8C863: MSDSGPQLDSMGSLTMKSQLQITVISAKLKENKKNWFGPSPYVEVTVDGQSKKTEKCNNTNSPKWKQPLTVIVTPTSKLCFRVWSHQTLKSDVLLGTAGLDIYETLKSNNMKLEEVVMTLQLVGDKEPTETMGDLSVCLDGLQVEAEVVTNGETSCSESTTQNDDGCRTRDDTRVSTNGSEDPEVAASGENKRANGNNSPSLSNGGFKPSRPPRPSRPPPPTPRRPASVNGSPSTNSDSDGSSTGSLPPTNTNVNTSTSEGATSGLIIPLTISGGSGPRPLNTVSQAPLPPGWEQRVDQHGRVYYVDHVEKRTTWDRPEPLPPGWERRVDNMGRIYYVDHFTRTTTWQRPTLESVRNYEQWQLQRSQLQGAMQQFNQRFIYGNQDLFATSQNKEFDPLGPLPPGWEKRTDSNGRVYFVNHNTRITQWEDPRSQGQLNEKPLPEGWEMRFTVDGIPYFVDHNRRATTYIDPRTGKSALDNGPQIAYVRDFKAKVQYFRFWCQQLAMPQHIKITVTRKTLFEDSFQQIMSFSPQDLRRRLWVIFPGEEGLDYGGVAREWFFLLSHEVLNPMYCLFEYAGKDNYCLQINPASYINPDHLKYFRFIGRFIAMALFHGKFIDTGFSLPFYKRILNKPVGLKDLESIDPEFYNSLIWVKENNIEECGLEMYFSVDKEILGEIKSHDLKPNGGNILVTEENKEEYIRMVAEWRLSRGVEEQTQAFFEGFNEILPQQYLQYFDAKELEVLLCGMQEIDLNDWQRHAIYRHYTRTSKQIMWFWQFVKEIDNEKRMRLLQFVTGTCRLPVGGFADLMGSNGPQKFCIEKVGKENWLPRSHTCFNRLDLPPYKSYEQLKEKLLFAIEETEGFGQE
UniProt Q9R0N7: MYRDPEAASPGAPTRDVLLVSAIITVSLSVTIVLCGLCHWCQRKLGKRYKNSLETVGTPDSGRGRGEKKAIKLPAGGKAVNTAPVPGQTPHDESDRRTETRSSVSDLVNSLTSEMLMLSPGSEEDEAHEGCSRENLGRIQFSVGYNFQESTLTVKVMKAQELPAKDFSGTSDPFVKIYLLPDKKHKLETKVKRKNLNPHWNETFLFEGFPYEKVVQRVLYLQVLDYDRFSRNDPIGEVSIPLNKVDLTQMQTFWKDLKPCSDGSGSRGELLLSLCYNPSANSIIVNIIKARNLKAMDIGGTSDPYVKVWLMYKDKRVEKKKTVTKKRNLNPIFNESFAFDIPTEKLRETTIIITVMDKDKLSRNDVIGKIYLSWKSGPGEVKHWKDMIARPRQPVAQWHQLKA

T1: GST-tagged mouse GlialCAM cytosolic tail (mouse) (UniProt Q640R3)
T1 sequence: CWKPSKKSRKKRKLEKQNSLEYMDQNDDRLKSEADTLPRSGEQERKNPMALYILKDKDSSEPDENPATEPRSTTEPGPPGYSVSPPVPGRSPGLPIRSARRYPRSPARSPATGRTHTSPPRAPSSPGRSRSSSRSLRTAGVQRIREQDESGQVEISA

B1: Rho guanine nucleotide exchange factor 2 (protein, UniProt Q60875 1-985)
chain: MSRIESLTRARIDRSKEQATKTREKEKMKEAKDARYTNGHLFTTISVSGMTMCYACNKSITAKEALICPTCNVTIHNRCKDTLANCTKVKQKQQKAALLRNNTALQSVSLRSKTTTRERPTSAIYPSDSFRQSLLGSRRGLSSLSLAKSVSTTNIAGHFNDESPLGLRQILSQSTDSLNMRNRTLSVESLIDEGVEVFYNELMSDFEMDEKDFEADSWSLAVDSSFLQQHKKEVMKKQDVIYELIQTELHHVRTLKIMTRLFRTGMLEELQMEPEVVQGLFPCVDELSDIHTRFLNQLLERRRQALCPGSTRNFVIHRLGDLLISQFSGSNAEQMRKTYSEFCSRHTKALKLYKELYARDKRFQQFIRKMTRSAVLKRHGVQECILLVTQRITKYPVLINRILQNSHGVEEEYQDLASALGLVKELLSNVDQDVHELEKEARLQEIYNRMDPRAQTPVPGKGPFGRDELLRRKLIHEGCLLWKTATGRFKDVLLLLMTDVLVFLQEKDQKYIFTSLDKPSVVSLQNLIVRDIANQAKGMFLISSGPPEMYEVHAASRDDRTTWIRVIQQSVRLCPSREDFPLIETEDKAYLRRIKTKLQQKNQALVELLQKNVELFAEMVHFQALKAGFVGMPPPALPRGLFRLESFESLRGERLLKDALREVEGLKDLLLGPCVDLPMTSREPALPLDSDSGSCPGVTANGEARTFNGSIELCRADSDSSQKDRNGNQLRSPQEEVLQPLINLYGLLHGLQAVVVQQERLMEALFPEGPERWEKLSRANSRDGEAGRAAVASVTPEKQATELALLQRQHTLLQEELRRCQRLGEERATEAGSLEARLRESEQARALLEREAEEIRRQLAALGQNEPLPAEAPWARRPLDPRRRSLPAGDALYLSFNPPQPSRGHDRLDLPVTVRSLHRPFDDREAQELGSPEDRLQDSSDPDTGSEEEVSSRLSPPHSPRDFTRMQDIPEETESRDGEPTASES

The molecules below were run against T1, GST-tagged mouse GlialCAM cytosolic tail (mouse) (assay: affinity purification with mass spectrometry).

binding | Molecule
binds | MYO6 (from UniProt Q64331 1-1262)
binds | SRPK2 (from UniProt O54781 1-681)
binds | AGAP1 (from UniProt Q8BXK8 1-857)
binds | Thsd7a (from UniProt Q69ZU6 39-1645)
binds | MTCL1 (from UniProt Q3UHU5 1-1945)
binds | ATP2B1 (from UniProt G5E829 1-1220)
binds | NED4L (from UniProt Q8CFI0 1-1004)
binds | USP10 (from UniProt P52479 1-792)
binds | myelin basic protein (from UniProt P04370-5)
binds | DGKZ (from UniProt Q80UP3 1-929)
binds | MACF1 (from UniProt Q9QXZ0 1-7354)
binds | EPB41L3 (from UniProt Q9WV92 1-929)
binds | RCC2 (from UniProt Q8BK67 1-520)
binds | DGKI (from UniProt D3YWQ0 1-1050)
binds | synaptosome-associated protein 25 (from UniProt P60879 1-206)
binds | phosphatidylinositol-4-phosphate 5-kinase type-1 gamma (from UniProt O70161 1-661)
binds | MAP1B (from UniProt P14873 1-2464)
binds | WWP2 (from UniProt Q9DBH0 1-870)
binds | SRPK1 (from UniProt O70551 1-648)
binds | MARK3 (from UniProt Q03141 1-753)
binds | MARK2 (from UniProt Q05512 1-776)
binds | MAP1A (from UniProt Q9QYR6 1-2776)
binds | NPM1 (from UniProt Q61937 1-292)
binds | DCTN1 (from UniProt O08788 1-1281)
binds | KIF21A (from UniProt Q9QXL2 1-1672)
binds | ITCH (from UniProt Q8C863 1-864)
binds | SYT7 (from UniProt Q9R0N7 1-403)
binds | CAPZA2 (from UniProt P47754 1-286)
binds | MAP2K1 (from UniProt P31938 1-393)
binds | B1

These are yes or no findings as the source states them, for the method shown. Binding seen in cells or lysates may run through a third protein. Here binding means that the protein was enriched with, or labelled near, the bait; the list need not be complete. Sequences can lack the tags named with a protein.
